PubChem BioAssay AID743255 (National Center for Advancing Translational Sciences (NCATS), 2014)
About 910 (0.23%) of roughly 390,000 compounds were called active. The shares of active, inactive and inconclusive entries below differ from those in the screen. Calls follow the shape of the dose curve; as a rule, active = well fitted inhibition curve with a large enough effect; inconclusive = small, poorly fitted or top-dose-only effect; inactive = no such curve, though single readings can be large or run the other way. A potency beside an inconclusive call is a rough fit, not a confirmed value.

Sequences of proteins named here, by UniProt entry; tags and fusion partners are left off. A change or cut given only in a name is not applied to a line headed by its entry.
UniProt O94782: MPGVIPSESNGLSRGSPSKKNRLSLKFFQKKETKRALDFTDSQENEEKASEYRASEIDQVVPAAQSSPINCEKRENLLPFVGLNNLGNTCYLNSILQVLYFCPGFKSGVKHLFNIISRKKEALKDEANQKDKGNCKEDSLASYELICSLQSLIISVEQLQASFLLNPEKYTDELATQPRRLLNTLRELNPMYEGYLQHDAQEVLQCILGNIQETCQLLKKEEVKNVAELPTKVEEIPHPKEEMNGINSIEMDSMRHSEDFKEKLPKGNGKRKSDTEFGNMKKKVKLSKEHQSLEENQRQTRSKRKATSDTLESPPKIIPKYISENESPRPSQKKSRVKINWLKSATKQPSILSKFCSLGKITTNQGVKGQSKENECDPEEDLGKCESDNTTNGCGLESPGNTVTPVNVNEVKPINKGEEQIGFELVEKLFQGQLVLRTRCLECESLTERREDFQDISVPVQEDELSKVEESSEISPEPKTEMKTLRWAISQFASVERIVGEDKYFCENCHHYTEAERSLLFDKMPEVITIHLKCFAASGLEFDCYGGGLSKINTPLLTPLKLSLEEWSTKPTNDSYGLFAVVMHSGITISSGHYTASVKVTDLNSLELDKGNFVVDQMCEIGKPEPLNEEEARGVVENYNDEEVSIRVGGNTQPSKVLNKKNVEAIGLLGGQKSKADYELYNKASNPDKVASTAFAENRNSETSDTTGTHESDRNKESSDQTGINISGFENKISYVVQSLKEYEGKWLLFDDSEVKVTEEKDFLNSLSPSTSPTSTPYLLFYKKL

Target: Ubiquitin carboxyl-terminal hydrolase 1 (Homo sapiens) (UniProt O94782)
Test: Inhibitors of USP1/UAF1: Primary Screen; also: nearly all actives have a fitted effect of over 60% in size
Details: recombinant USP1/UAF1, Ub-Rhodamine cleavage fluorescence; activity change, negative = inhibition: at 57.1 µM (top of the series)
How it was run: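 USP1/UAF1 complex at 1 nM was preincubated with compound for 15 min at room temperature, then Ub-Rho substrate (150nM final) was added. Fluorescence (480/540 nm) was read kinetically, 6 reads every 60 seconds.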
% is scaled to controls: 0 for no effect and ±100 for the full control effect; potency is read from the fitted curve at half-maximal effect.

Potency, inconclusive:
COC(=O)C1=CN(Cc2ccc(C)cc2)C=C(C(=O)OC)C1c1cc(OC)c(OC)c(OC)c1 28.2 µM [inhibitor, partial curve]
COc1ccccc1NC(=O)CSC1=Nc2ccccc2C2=NC(CC(=O)NCc3cccs3)C(=O)N12 (configuration not stated) 50.1 µM [inhibitor, partial curve, poor fit]
CN(C)c1ccc(Cc2cc3c(O)ccc(O)c3cc(Cc3ccc(N(C)C)cc3)c2=O)cc1 35.5 µM [inhibitor, partial curve]
CC1CCc2c(sc3nnn(CC(=O)Nc4ccc(Cl)cc4)c(=O)c23)C1 (configuration not stated) 35.5 µM [inhibitor, partial curve]
O=C(c1ccccc1)N1CCN(C2CC(=O)N(CCc3ccccc3)C2=O)CC1 (configuration not stated) 44.7 µM [inhibitor, single point]
CCN(CC)S(=O)(=O)c1cc(NC(=O)c2ccc3c(c2)NC(=O)C(C)S3)ccc1C (configuration not stated) 44.7 µM [inhibitor, partial curve]
CC(=O)Nc1nc2ccccc2n1Cc1ccc(Cl)cc1 15.8 µM [inhibitor, partial curve]
Fc1ccc(-c2cn3cc(Cc4ccccc4)sc3n2)cc1 7.94 µM [inhibitor, full curve, poor fit]
C=CCSc1nnc2c(n1)OC=Nc1ccc(Br)cc1-2 44.7 µM [inhibitor, partial curve]
O=C(NCc1csc(-c2ccccc2)n1)c1cc(F)cc2c1OCOC2 39.8 µM [inhibitor, partial curve]
CCOC(=O)C1Nc2ccc(C(F)(F)F)cc2C2C=CCC12 (configuration not stated) 28.2 µM [inhibitor, single point]
CC(C)(C)[C@H]1C=C(C(=O)NCc2nc3ccccc3[nH]2)O[C@@H](OCc2ccc(CO)cc2)C1 50.1 µM [inhibitor, partial curve, poor fit]
CC(C)c1ccc(NC2CCCN(C(=O)CC3CCCC3)C2)cc1 (configuration not stated) 44.7 µM [inhibitor, partial curve, poor fit]
CC#CCN1c2ccccc2[C@]23C[C@@H](C(=O)OC)N=C2NC(C(=O)OC)=C(C(=O)OC)[C@H]13 0.126 µM [inhibitor, full curve, poor fit]
CC(C)C(C)(C#N)NC(=O)CSc1nc2scc(-c3ccccc3)c2c(=O)[nH]1 (configuration not stated) 28.2 µM [inhibitor, partial curve]
O=C(O)c1cccc(-n2cccc2C=C2C(=O)c3ccccc3C2=O)c1 22.4 µM [inhibitor, partial curve, poor fit]
O=S(=O)(c1ccccc1)n1ccc(-c2cnc(-c3ccccc3)s2)n1 35.5 µM [inhibitor, partial curve, poor fit]
CCOCCCN(Cc1ccco1)C(=O)c1cc2c(=O)[nH]c3ccc(C)cc3c2s1 7.94 µM [inhibitor, partial curve, poor fit]
CCOc1ccc(CNS(=O)(=O)c2ccc(-c3coc(C)n3)cc2)cc1OC 0.282 µM [inhibitor, full curve]
CNc1ccc(C=C2C=Cc3ccccc32)cc1 0.355 µM [inhibitor, full curve]
C=CCn1c(C(C)NC(=O)c2ccccc2)n[nH]c1=S (configuration not stated) 39.8 µM [inhibitor, single point]
CSc1ccc(/C=C(/Sc2nnc(-c3ccccc3)o2)C(=O)O)cc1 31.6 µM [inhibitor, single point]
COc1ccc(C(=O)N2c3ccc(C)cc3C(C)(c3ccccc3)CC2(C)C)cc1 (configuration not stated) 44.7 µM [inhibitor, partial curve]
C[C@@H]1CN([C@H](C)CO)C(=O)CCCn2nncc2CO[C@H]1CN(C)S(=O)(=O)c1ccc2c(c1)OCCCO2 0.126 µM [inhibitor, full curve, poor fit]
O=C1c2[nH]nc(-c3ccccc3O)c2C(c2ccc(F)cc2)N1CCO (configuration not stated) 14.1 µM [inhibitor, partial curve, poor fit]
CCCCn1cc(C(C)(C)C)c(C#N)c1NC(C)=O 50.1 µM [inhibitor, partial curve, poor fit]
Cc1c(CC(=O)O)c(=O)oc2c(C)c3occ(-c4ccccc4)c3cc12 44.7 µM [inhibitor, partial curve]
CCOC(=O)c1cc(-c2ccc(C)cc2)n(CCC(=O)Nc2ccc(OC)c(OC)c2)c1C 15.8 µM [inhibitor, partial curve, poor fit]
O=S(=O)(c1ccc2nc(COc3ccc(Cl)cc3Cl)[nH]c2c1)N1CCOCC1 0.562 µM [inhibitor, full curve, poor fit]
Cc1ccc(Cl)cc1N1CCN(C(=O)Cc2c(C(=O)O)[nH]c3ccc(Cl)cc23)CC1 50.1 µM [inhibitor, partial curve, poor fit]
O=[N+]([O-])c1cc([N+](=O)[O-])c(Oc2cc(F)cc(F)c2F)cc1NN1CCCCC1 50.1 µM [inhibitor, partial curve, poor fit]
COc1cc(C2Nc3cccc4cccc(c34)N2)cc(OC)c1OC(C)=O 31.6 µM [inhibitor, partial curve]
NS(=O)(=O)c1ccc(NS(=O)(=O)c2ccc(Br)cc2)cc1 7.94 µM [inhibitor, single point]
CCOC(=O)c1ccc(NC(=O)CC2NCCNC2=O)cc1 (configuration not stated) 0.631 µM [inhibitor, full curve]
Oc1cccc(C=NCc2ccccc2)c1O 44.7 µM [inhibitor, partial curve, poor fit]
COc1cc(-c2n[nH]c(=S)n2Cc2ccccc2)cc(OC)c1OC 44.7 µM [inhibitor, partial curve]
CCc1cnc2c(c1SCC(=O)Nc1ccc(C)cc1C)c(=O)n(C)c(=O)n2C 0.0316 µM [inhibitor, full curve, poor fit]
CC(C)(C)OC(=O)C[C@H]1C/C=C\C[C@@H](CC(=O)N(CCO)Cc2ccccc2)C(=O)N[C@H](Cc2ccccc2)COC1=O 15.8 µM [inhibitor, partial curve]

Taken from the entries so far for reference:
Potency, inconclusive:
CC(C)C(C)(C#N)NC(=O)CSc1nc2scc(-c3ccccc3)c2c(=O)[nH]1 (configuration not stated) 28.2 µM [inhibitor, partial curve]
O=C(O)c1cccc(-n2cccc2C=C2C(=O)c3ccccc3C2=O)c1 22.4 µM [inhibitor, partial curve, poor fit]

Next part:

Potency, active:
O=C1C(=O)c2ccc(-c3ccccc3)cc2-c2ccccc21 5.01 µM
O=C1C(C2=C(O)c3ccccc3C2=O)=Nc2ccccc21 14.1 µM

Activity change, negative = inhibition, inconclusive:
CCOC(=O)Cc1nc(-c2ccc(Cl)cc2)n[nH]1 -27.3% [inhibitor]

Activity change, negative = inhibition, inactive:
COc1ccc(CN2CCN(C(=O)c3ccc(-c4ccccc4)cc3)CC2)c(OC)c1OC -26.5%
Cc1cc(C)cc(NC(=O)Cn2c(C(F)(F)F)nc3ccccc32)c1 -12%
S=C(Nc1ccc(Cc2ccncc2)cc1)Nc1cccc(Cl)c1 -10.9%
CCCC(=O)Nc1ccc(N2CCOCC2)cc1 -4.53%
COc1ccc(N2CCN(C(=S)NCCc3ccccc3)CC2)cc1 -5.78%
Cc1ccc(Oc2c(C(N)=O)cc([N+](=O)[O-])cc2[N+](=O)[O-])cc1 0.362%
CCCc1c(C(=O)N/N=C/c2cccs2)nnn1-c1nonc1N -13.5%
CCc1ccc2oc(-c3cc(NC(=O)c4cc([N+](=O)[O-])ccc4N4CCOCC4)ccc3Cl)nc2c1 -23.6%
C=C(CN(C)C)C(=O)c1ccc(C)cc1C -23.6%
COc1ccc(CNC2CCSc3ccccc32)cc1OC (configuration not stated) -6.99%
O=C(O)c1ccc(OCCCCCCOC2CCCCO2)cc1 (configuration not stated) -17.6%
CC(NC(=S)NC(=O)c1ccccc1Br)c1ccccc1 (configuration not stated) -25.7%
CC(=O)N1CCC2(CC1)C/C(=N\NC(=S)Nc1ccccc1F)c1cc(O)ccc1O2 -2.2%
Cc1ccc(S(=O)(=O)NCC2CCC(C(=O)NCCc3ccc(Cl)cc3)CC2)cc1 (configuration not stated) 7.09%
O=[N+]([O-])c1cc(Cl)ccc1N1CCCC1 -11%
O=C(NCc1cccnc1)C1CC(c2ccccc2O)=NO1 (configuration not stated) -6.92%
CCn1c(N2CCN(S(=O)(=O)c3ccccc3)CC2)nc2ccccc21 -11.9%
Cc1ccc(N=Nc2c(C)[nH][nH]c2=O)c(C)c1 -20.2%
O=C(NN1C(=O)C2C(C1=O)C1C=CC2C12CC2)c1ccncc1 (configuration not stated) -13.6%
COc1cccc(CC2(CO)CCCN(Cc3cn(C)c4ccccc34)C2)c1 (configuration not stated) -1.94%
CCc1ccc(CNC(=O)c2c(C)oc3ncn(CC(C)C)c(=O)c23)cc1 -11.1%
Cc1cc(N/N=C/c2ccc(O)c(C)c2O)nc(-c2ccccc2O)n1 -6.6%
CN1OC[C@@H]2CN[C@H](c3cccc(-c4ccc(C#N)cc4)c3)C[C@@H]21 -0.935%
Cc1c(N2C(=O)/C(=C\c3ccccc3O)SC2=S)c(=O)n(-c2ccccc2)n1C -22.2%
COc1ccc(C(=O)/C=C/c2ccc(N3CCCCC3)c([N+](=O)[O-])c2)c(OC)c1 -6.82%
N#CC1=C(N)N(c2ccc(F)cc2)C2=C(C1c1ccc(O)cc1)S(=O)(=O)CC2 (configuration not stated) -24.8%
NS(=O)(=O)c1ccc(CCNCc2ccccc2OCc2ccc(Cl)cc2)cc1 -15.7%
CN(CC(=O)Nc1ccccc1Cl)CC(=O)Nc1ccccc1[N+](=O)[O-] -8.1%
Cn1c(COc2ccc(Br)cc2)nnc1SC1CCc2ccccc2C1=O (configuration not stated) -9.64%
CC(CNc1ccccc1O)C(=O)O (configuration not stated) -13.3%
O=C(O)CCc1ccc(-c2ccccc2)n1CC(=O)Nc1ccccc1C(F)(F)F -14.2%

Looked up by compound from the entries so far:
Activity change, negative = inhibition, inactive:
COc1ccc(CNC2CCSc3ccccc32)cc1OC (configuration not stated) -6.99%
N#CC1=C(N)N(c2ccc(F)cc2)C2=C(C1c1ccc(O)cc1)S(=O)(=O)CC2 (configuration not stated) -24.8%
COc1ccc(CN2CCN(C(=O)c3ccc(-c4ccccc4)cc3)CC2)c(OC)c1OC -26.5%
Cn1c(COc2ccc(Br)cc2)nnc1SC1CCc2ccccc2C1=O (configuration not stated) -9.64%
CCCC(=O)Nc1ccc(N2CCOCC2)cc1 -4.53%
